Source: US20220041999A1 (NEOGENE THERAPEUTICS B V, published 2022)
These are yes or no findings as the source states them, for the method shown. Some entries that bind do so weakly or less than the wild type.

T1: FOS^WT-mDHFR_B
T1 chain: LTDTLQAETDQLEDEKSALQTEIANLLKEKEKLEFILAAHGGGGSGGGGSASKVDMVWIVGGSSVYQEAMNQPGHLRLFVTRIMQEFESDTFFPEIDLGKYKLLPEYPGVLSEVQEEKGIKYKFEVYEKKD

T2: FOS^MUT3AA-mDHFR_B
T2 chain: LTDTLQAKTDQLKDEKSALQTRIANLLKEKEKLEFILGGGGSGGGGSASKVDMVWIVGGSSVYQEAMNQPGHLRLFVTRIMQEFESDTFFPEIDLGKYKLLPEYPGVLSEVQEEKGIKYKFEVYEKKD

B1: JUN^MUT3AA-mDHFR_A (other)
chain: RIARLEEEVKTLEAQNSELASTANMLEEQVAQLKQKVGGGGSGGGGSMVRPLNCIVAVSQNMGIGKNGDFPWPPLRNESKYFQRMTTTSSVEGKQNLVIMGRKTWFSIPEKNRPLKDRINIVLSRELKEPPRGAHFLAKSLDDALRLIEQPEL
B2: JUN^WT-mDHFR_A (other)
chain: RIARLEEKVKTLKAQNSELASTANMLREQVAQLKQKVMNHGGGGSGGGGSMVRPLNCIVAVSQNMGIGKNGDFPWPPLRNESKYFQRMTTTSSVEGKQNLVIMGRKTWFSIPEKNRPLKDRINIVLSRELKEPPRGAHFLAKSLDDALRLIEQPEL

How the values were obtained:
FOS^WT-mDHFR_B = target: T1, FOS^WT-mDHFR_B; assay: split-DHFR complementation, MTX selection of T cells, FACS
FOS^MUT3AA-mDHFR_B = target: T2, FOS^MUT3AA-mDHFR_B; assay: as above

Row | Binder | binding (FOS^WT-mDHFR_B) | binding (FOS^MUT3AA-mDHFR_B)
1 | B1 | binds | 
2 | B2 |  | binds
